Measurements reported in paper PMC12596378.
No constants are given. Whether binding was seen depends on the method and setting. In cells and extracts the contact can be indirect. Some binding calls cover weakened binding; strength is not graded here. Tags and fused reporters may be left off the sequences shown.

Sequences of proteins named here, by UniProt entry; tags and fusion partners are left off.
UniProt P07305: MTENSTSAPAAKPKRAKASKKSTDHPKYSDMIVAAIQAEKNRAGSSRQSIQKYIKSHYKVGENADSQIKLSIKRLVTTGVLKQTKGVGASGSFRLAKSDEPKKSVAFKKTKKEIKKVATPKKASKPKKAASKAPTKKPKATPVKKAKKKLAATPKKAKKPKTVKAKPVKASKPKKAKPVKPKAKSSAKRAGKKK

Molecular target: histone H1.0, endogenous in A549 cells (human (endogenous in A549)) (UniProt P07305)
Assay: co-IP; A549 cell lysates; HMGB1, NS1 or H1.0 antibody on SureBeads Protein G, 2 h room temperature; cells RSV-infected 24 h, or NS1/control lentivirus 72 h, or RSV 6 h then siNS1/siCON 24 h

B1: NS1 expressed from the NS1 lentivirus (LV5-NS1-GFP) in A549 cells (protein, UniProt P0DOE9 1-139)
chain: MGSNSLSMIKVRLQNLFDNDEVALLKITCYTDKLIHLTNALAKAVIHTIKLNGIVFVHVITSSDICPNNNIVVKSNFTTMPVLQNGGYIWEMMELTHCSQPNGLLDDNCEIKFSKKLSDSTMTNYMNQLSELLGFDLNP
binding: binds
